# Source: the supplement of paper PMC12823440, “Inhibitors supercharge kinase turnover through native proteolytic circuits” (Nature, 2025)
# Sequences of proteins named here, by UniProt entry; tags and fusion partners are left off. A change or cut given only in a name is not applied to a line headed by its entry.
# UniProt Q9UM73: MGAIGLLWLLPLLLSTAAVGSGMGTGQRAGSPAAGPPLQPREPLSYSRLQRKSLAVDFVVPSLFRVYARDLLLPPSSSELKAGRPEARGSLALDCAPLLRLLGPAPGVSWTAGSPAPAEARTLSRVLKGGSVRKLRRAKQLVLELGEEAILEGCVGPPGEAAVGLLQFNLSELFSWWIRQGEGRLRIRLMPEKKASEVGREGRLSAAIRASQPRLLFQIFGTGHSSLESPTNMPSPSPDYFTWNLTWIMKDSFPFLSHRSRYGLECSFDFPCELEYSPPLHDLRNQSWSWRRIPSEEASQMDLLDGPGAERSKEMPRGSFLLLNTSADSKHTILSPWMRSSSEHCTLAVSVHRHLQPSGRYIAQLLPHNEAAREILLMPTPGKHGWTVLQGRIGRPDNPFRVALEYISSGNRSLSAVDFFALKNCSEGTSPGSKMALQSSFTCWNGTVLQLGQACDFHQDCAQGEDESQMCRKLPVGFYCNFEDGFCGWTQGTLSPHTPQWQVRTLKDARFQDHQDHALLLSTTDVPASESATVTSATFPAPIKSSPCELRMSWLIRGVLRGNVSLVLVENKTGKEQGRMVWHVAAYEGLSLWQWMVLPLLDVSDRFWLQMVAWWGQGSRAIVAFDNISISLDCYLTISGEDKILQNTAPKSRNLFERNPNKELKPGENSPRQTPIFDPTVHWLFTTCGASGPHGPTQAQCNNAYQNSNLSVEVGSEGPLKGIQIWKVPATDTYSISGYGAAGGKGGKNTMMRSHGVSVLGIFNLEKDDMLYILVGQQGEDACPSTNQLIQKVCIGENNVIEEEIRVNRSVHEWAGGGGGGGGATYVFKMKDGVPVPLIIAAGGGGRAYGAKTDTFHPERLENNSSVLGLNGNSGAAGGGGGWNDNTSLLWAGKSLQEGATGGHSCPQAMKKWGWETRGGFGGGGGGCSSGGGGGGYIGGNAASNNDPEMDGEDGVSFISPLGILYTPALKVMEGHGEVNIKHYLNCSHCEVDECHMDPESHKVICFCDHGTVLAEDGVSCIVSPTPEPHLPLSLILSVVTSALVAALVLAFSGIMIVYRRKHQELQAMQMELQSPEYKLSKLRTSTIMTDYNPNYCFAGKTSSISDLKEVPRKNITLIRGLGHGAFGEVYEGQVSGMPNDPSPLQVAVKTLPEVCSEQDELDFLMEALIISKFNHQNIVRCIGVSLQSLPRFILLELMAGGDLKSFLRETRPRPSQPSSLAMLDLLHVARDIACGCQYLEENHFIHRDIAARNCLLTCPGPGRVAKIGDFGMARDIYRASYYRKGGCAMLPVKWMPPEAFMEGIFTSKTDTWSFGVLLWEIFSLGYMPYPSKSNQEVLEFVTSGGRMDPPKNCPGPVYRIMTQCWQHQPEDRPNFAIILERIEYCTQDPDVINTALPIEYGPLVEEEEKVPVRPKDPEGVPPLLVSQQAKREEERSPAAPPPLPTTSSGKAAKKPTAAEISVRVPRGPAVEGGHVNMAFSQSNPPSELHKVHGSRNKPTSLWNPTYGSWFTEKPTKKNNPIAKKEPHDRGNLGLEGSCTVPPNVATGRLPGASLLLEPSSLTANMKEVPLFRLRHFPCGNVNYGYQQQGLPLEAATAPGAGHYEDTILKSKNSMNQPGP
# UniProt O14965: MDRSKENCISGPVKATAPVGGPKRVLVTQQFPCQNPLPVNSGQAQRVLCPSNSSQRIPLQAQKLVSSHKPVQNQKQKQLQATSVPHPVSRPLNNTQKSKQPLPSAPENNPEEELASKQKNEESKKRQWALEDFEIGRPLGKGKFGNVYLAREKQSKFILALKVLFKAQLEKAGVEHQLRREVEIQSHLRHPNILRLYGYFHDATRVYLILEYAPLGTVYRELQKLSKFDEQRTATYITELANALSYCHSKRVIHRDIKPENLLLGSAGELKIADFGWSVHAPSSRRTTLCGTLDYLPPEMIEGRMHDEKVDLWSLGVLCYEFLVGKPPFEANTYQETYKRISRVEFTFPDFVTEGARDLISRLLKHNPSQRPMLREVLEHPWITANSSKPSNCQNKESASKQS
# UniProt Q96GD4, whole entry: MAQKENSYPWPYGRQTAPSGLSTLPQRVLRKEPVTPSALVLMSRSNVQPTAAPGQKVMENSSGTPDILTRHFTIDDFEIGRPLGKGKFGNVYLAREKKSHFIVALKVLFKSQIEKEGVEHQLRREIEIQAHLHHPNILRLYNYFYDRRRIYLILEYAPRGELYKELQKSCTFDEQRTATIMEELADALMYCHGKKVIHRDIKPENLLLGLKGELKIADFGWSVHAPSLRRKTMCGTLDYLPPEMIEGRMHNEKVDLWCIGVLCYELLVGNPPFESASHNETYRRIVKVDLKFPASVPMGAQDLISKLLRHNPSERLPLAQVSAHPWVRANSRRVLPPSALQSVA
# UniProt P51813: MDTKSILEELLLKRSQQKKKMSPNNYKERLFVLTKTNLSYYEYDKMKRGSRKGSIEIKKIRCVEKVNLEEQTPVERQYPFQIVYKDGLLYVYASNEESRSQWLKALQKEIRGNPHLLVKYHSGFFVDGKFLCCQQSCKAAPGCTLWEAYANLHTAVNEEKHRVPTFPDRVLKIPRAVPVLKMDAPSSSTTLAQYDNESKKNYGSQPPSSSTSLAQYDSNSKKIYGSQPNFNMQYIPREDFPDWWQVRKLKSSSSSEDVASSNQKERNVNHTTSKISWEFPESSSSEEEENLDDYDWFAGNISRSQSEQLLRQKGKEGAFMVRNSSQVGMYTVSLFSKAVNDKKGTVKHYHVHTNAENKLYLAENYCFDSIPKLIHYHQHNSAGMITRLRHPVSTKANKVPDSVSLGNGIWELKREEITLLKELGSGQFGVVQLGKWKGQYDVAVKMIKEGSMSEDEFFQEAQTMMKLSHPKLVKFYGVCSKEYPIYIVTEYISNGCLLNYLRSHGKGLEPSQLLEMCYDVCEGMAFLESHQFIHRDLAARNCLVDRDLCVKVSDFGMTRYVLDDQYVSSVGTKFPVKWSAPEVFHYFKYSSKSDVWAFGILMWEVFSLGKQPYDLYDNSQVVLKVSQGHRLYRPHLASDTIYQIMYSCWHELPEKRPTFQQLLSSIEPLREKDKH
# UniProt Q06187: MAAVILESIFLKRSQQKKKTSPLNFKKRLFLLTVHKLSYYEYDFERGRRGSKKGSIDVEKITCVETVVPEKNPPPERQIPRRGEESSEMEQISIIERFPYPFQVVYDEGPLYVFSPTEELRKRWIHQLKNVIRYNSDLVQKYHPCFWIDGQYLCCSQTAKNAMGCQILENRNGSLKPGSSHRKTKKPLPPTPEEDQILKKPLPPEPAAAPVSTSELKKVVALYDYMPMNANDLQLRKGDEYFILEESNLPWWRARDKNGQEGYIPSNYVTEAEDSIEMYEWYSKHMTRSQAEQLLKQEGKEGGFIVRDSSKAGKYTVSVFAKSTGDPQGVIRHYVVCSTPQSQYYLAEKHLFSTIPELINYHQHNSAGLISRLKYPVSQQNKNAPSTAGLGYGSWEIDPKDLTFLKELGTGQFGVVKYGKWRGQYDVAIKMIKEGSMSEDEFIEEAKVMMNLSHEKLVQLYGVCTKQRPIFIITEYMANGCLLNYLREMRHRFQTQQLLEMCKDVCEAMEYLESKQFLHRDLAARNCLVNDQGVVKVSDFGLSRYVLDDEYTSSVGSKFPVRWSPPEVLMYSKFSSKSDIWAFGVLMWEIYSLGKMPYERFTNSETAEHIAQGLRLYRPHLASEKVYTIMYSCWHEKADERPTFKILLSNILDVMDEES
# UniProt Q13555: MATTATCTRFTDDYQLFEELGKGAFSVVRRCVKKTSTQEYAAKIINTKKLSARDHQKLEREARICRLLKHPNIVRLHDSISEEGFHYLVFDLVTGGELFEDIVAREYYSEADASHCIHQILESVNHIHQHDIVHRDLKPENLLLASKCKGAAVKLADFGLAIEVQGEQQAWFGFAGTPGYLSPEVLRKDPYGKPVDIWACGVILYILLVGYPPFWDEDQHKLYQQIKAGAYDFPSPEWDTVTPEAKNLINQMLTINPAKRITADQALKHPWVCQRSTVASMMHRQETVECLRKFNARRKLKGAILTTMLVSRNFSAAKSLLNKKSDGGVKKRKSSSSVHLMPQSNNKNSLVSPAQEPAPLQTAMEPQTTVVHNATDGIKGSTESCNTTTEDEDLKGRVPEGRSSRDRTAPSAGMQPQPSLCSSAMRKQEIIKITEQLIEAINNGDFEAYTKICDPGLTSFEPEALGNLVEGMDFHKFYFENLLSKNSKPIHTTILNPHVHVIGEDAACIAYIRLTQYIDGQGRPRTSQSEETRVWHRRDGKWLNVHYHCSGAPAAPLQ
# UniProt Q15131: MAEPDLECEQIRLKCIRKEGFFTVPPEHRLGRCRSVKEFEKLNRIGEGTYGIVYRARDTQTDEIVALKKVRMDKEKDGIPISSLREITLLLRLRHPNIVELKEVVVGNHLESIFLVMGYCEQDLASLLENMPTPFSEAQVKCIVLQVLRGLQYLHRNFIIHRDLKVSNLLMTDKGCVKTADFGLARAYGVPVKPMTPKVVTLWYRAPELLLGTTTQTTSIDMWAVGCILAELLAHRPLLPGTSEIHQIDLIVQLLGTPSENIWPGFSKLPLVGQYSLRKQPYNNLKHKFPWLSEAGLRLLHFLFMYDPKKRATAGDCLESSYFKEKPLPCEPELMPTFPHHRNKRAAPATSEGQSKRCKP
# UniProt O96017, whole entry: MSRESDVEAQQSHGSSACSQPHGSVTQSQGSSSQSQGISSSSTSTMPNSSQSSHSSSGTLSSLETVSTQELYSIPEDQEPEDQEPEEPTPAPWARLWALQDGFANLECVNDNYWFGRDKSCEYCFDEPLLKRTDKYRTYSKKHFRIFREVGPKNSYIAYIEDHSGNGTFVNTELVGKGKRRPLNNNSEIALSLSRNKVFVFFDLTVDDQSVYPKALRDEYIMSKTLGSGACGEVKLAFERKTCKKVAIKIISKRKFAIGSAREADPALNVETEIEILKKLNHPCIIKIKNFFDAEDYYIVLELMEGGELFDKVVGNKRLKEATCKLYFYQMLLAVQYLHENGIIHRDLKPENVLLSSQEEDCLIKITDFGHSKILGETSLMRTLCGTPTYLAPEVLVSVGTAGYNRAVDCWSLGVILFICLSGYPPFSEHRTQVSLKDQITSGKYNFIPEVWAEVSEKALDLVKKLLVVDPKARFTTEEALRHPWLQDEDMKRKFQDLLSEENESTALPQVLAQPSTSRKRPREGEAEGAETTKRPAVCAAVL
# UniProt P07333, whole entry: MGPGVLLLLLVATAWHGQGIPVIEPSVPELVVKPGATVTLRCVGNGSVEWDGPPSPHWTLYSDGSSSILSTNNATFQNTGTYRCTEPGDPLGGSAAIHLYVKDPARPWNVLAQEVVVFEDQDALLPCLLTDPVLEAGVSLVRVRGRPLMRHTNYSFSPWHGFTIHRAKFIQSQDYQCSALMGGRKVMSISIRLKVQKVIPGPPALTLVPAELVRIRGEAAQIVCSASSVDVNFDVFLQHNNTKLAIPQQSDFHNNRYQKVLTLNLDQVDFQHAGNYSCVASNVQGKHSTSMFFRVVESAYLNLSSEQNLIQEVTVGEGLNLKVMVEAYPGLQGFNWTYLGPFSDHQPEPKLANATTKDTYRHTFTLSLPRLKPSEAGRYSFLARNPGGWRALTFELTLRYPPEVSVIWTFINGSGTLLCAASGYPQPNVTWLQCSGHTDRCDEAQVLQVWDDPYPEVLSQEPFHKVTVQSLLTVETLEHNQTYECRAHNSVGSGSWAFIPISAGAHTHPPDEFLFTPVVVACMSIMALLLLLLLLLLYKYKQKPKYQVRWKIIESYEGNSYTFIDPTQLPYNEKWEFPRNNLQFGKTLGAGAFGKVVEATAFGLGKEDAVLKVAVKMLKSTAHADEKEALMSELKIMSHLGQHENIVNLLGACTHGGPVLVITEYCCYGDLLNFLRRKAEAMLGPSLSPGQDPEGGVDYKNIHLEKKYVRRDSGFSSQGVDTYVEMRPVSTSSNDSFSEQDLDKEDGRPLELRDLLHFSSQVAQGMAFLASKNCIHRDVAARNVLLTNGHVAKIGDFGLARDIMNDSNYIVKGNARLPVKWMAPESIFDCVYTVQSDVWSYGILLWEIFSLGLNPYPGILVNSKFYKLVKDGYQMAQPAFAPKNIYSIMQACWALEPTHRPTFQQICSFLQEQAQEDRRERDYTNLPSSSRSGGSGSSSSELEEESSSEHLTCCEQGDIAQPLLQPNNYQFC
# UniProt P41240: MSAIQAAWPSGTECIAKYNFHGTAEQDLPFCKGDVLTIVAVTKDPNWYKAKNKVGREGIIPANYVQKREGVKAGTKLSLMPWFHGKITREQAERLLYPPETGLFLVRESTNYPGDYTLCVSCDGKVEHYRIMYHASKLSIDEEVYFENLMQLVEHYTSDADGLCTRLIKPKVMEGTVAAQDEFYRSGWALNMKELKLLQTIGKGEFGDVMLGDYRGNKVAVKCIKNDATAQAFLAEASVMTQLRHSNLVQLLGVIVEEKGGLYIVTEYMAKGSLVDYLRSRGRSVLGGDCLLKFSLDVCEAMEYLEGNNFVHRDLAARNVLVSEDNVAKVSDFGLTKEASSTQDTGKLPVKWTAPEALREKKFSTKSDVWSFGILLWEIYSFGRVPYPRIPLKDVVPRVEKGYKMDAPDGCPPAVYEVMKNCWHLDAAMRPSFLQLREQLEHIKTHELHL
# Where a name gives a salt, the structure may show the parent alone. The list shows a part of the results. Hit calls seldom repeat between salt and free forms of one compound.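 Kinases, fused to nanoluciferase, were expressed in K562 cells; luminescence was measured every 4 h from 2 to 18 h as percent of control (DMSO = 100%, positive control = 0%). A time point is decreased if signal falls significantly (2 sigma). Hits were called by the authors by a rule that is not shown; the count of time points alone does not decide it.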
# Assays:
# Experiment in all cases: number of time points (of 5) at which kinase-Nluc abundance scored as decreased, DMSO-normalised (count); higher = more persistent destabilization
# Details in all cases: K562; 2-18 h
# ALK = ALK (UniProt Q9UM73)
# ARAF = ARAF (UniProt P10398)
# AURKA = AURKA (UniProt O14965)
# AURKB = AURKB (UniProt Q96GD4)
# AURKC = AURKC (UniProt Q9UQB9)
# BLK = BLK (UniProt P51451)
# BMX = BMX (UniProt P51813)
# BRAF = BRAF (UniProt P15056)
# BRAF_V600E = system: BRAF_V600E
# BTK = BTK (UniProt Q06187)
# CAMK2A = CAMK2A (UniProt Q9UQM7)
# CAMK2G = CAMK2G (UniProt Q13555)
# CDK10 = CDK10 (UniProt Q15131)
# CDK2 = CDK2 (UniProt P24941)
# CDK3 = CDK3 (UniProt Q00526)
# CDK5 = CDK5 (UniProt Q00535)
# CDK6 = CDK6 (UniProt Q00534)
# CHEK2 = CHEK2 (UniProt O96017)
# CSF1R = CSF1R (UniProt P07333)
# CSK = CSK (UniProt P41240)
SMILES,number of time points (ALK),number of time points (ARAF),number of time points (AURKA),number of time points (AURKB),number of time points (AURKC),number of time points (BLK),number of time points (BMX),number of time points (BRAF),number of time points (BRAF_V600E),number of time points (BTK),number of time points (CAMK2A),number of time points (CAMK2G),number of time points (CDK10),number of time points (CDK2),number of time points (CDK3),number of time points (CDK5),number of time points (CDK6),number of time points (CHEK2),number of time points (CSF1R),number of time points (CSK)
Nc1nc(N)c2nc(-c3cccc(O)c3)c(-c3cccc(O)c3)nc2n1 (10 µM),0,0,0,0,0,0,0,0,0,0,0,0,0,0,0,0,0,0,0,0
C=CC(=O)Nc1cc(Nc2nccc(-c3cn(C)c4ccccc34)n2)c(OC)cc1N(C)CCNC [AZ7550 Mesylate] (2.5 µM),0,0,0,0,0,2,0,0,2,0,0,0,0,0,0,0,0,0,0,0
C[C@@H]1O[C@@H](Oc2cc(O)c3c(=O)c(O[C@@H]4O[C@@H](C)[C@H](O)[C@@H](O)[C@H]4O)c(-c4ccc(O)cc4)oc3c2)[C@H](O)[C@H](O)[C@H]1O [Kaempferitrin] (10 µM),0,0,0,0,0,0,0,0,0,0,0,0,0,0,0,0,0,0,0,0
O=C(Nc1cc(Cl)cc2c1[nH]c1cnccc12)c1cccnc1 (10 µM),0,0,0,0,0,0,0,0,0,0,0,0,0,0,0,0,0,0,0,0
COc1cc(F)ccc1-c1ncnc(Nc2cccc(C[S@](C)(=N)=O)c2)n1 [Atuveciclib] (2.5 µM),2,0,3,0,0,2,3,0,2,0,1,0,0,0,0,0,0,2,0,0
CN1CCN(c2ccc(Nc3ncc4cc(C#N)c(=O)n(C5CCCC5)c4n3)cc2)CC1 (10 µM),0,0,1,0,0,0,0,0,0,0,0,0,0,0,0,0,0,0,0,0
CC(C)n1ncnc1-c1cn2c(n1)-c1ccc(O[C@@H](C)C(N)=O)cc1OCC2 (10 µM),0,0,3,0,0,0,0,0,1,0,0,0,0,0,0,0,0,0,0,0
NCCOc1ccc(Cl)cc1C(=O)Nc1ccc([N+](=O)[O-])cc1Cl [HJC0152 hydrochloride] (2 µM),0,0,0,0,0,0,0,0,0,0,0,0,0,0,0,0,0,0,0,0
N#Cc1ccc(-c2cnc3ccc(-c4ccc(C(=O)N5CCOCC5)cc4)cn23)cc1 (10 µM),0,0,0,0,0,0,0,0,0,0,0,0,0,0,0,0,0,0,0,0
Cc1cccc(COc2cccc(/C=C3\C(=O)NN(c4ccccc4)C3=O)c2)c1 (10 µM),0,0,0,0,0,0,0,0,0,0,0,0,0,0,0,0,0,0,0,0
CCNC(=O)C#Cc1ccc2c(C(=Nc3ccc(CN(C)C)cc3)c3ccccc3)c(O)[nH]c2c1 (2.5 µM),0,0,0,0,0,0,0,0,0,0,0,0,0,0,0,0,0,0,0,0
COc1ccc(-c2cc(=O)c3c(OC)cc(OC)c(OC)c3o2)cc1 [6-Demethoxytangeretin] (10 µM),0,0,0,0,0,0,0,0,0,0,0,0,0,0,0,0,0,0,0,0
c1nc2c(NC3CCCCC3)nc(Nc3ccc(N4CCOCC4)cc3)nc2[nH]1 [Reversine] (10 µM),1,0,0,0,0,0,0,0,4,0,0,0,0,0,0,0,0,1,0,0
Cc1nn(C)cc1-c1nc2c(N3CCN(Cc4ccc(Cl)cc4)CC3)c(Cl)cnc2[nH]1 (10 µM),0,0,0,0,0,0,0,0,0,0,0,0,0,0,0,0,0,0,0,0
Nc1ncc(C(=O)NC2CN(C(=O)C3CC3)C2)c2ccc(-c3cccc(F)c3)nc12 (2 µM),0,0,0,0,0,0,0,0,0,0,0,0,0,0,0,0,0,0,0,0
Cn1c2cc([S+](C)[O-])sc2c2cnn(Cc3cccc(N)c3)c(=O)c21 (stereo not given) (2.5 µM),0,0,0,0,0,0,0,0,0,0,0,0,0,0,0,0,0,0,0,0
O=C(c1cccc(Cl)c1F)N1CCN(Cc2cccc(Nc3nccs3)n2)CC1 (2.5 µM),0,0,0,0,0,0,0,0,0,0,0,0,0,0,0,0,0,0,0,0
COc1ccc2c3n(c(=NC(=O)c4cccnc4)nc2c1OC)CCN3 (2 µM),0,0,0,0,0,0,0,0,0,0,0,0,0,0,0,0,0,0,0,0
COc1cc2cc(Oc3ccc4ccc(=O)oc4c3)c(=O)oc2cc1O [Daphnoretin] (10 µM),0,0,0,0,0,0,0,0,0,0,0,0,0,0,0,0,0,0,0,0
N#Cc1cnc2c(Cl)cc(NCc3cn(CCN4CCCCCC4)nn3)cc2c1Nc1ccc(F)c(Cl)c1 [Cot inhibitor-1] (10 µM),0,0,0,0,0,0,0,3,0,0,0,0,0,0,4,0,0,0,0,0
Cn1c(CNc2cccc(C(=O)NCc3ccccc3C(F)(F)F)c2)nnc1-c1ccncc1 (10 µM),0,0,0,0,0,0,0,0,0,0,0,0,0,0,0,0,0,0,0,0
Nc1nc2c(nc(Br)n2[C@@H]2O[C@@H]3COP(=O)(O)O[C@H]3[C@H]2O)c(=O)[nH]1 [8-Bromo-cGMP (sodium)] (10 µM),0,0,0,0,0,0,0,0,0,0,0,0,0,0,0,0,1,0,0,0
NC[C@@](O)(c1ccc(Cl)cc1)c1ccc(-c2cn[nH]c2)cc1 (10 µM),0,0,0,0,0,0,0,0,0,0,0,0,0,0,0,0,0,0,0,0
CO[C@H]1CC[C@H](N2C(=O)CNc3ncc(-c4ccc(C(C)(C)O)nc4)nc32)CC1 (2.5 µM),0,0,0,0,0,0,0,0,1,0,0,0,0,0,0,0,0,0,0,0
COc1cc2c(cc1Nc1ncc(C(N)=O)c(Nc3c(F)cccc3C(F)(F)F)n1)CN(C)CC2 (2.5 µM),0,0,0,0,0,1,0,0,0,0,0,0,0,0,0,0,0,0,0,0

# Two compounds drawn at random from the list so far:
SMILES,number of time points (ALK),number of time points (ARAF),number of time points (AURKA),number of time points (AURKB),number of time points (AURKC),number of time points (BLK),number of time points (BMX),number of time points (BRAF),number of time points (BRAF_V600E),number of time points (BTK),number of time points (CAMK2A),number of time points (CAMK2G),number of time points (CDK10),number of time points (CDK2),number of time points (CDK3),number of time points (CDK5),number of time points (CDK6),number of time points (CHEK2),number of time points (CSF1R),number of time points (CSK)
NC[C@@](O)(c1ccc(Cl)cc1)c1ccc(-c2cn[nH]c2)cc1 (10 µM),0,0,0,0,0,0,0,0,0,0,0,0,0,0,0,0,0,0,0,0
COc1ccc2c3n(c(=NC(=O)c4cccnc4)nc2c1OC)CCN3 (2 µM),0,0,0,0,0,0,0,0,0,0,0,0,0,0,0,0,0,0,0,0
